From the supplement of paper PMC7661543
± gives the standard deviation of the averaged measurements. The effect of the compound repeats well; differences between the knockouts mostly do not.

Test system: ZR-75-1
Test: relative cell number vs DMSO control (72 h) (% of DMSO); higher = less growth inhibition (more cells)
Protocol: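 QMAP-Seq: a pool of 5 breast cancer cell lines (ZR-75-1, SKBR3, HCC-38, MDA-MB-231, BT-20), each carrying 12 doxycycline-inducible Cas9 sgRNA perturbations (11 knockouts plus non-targeting sgNT), was treated with compounds for 72 h at four 10-fold doses (10 nM-10 uM or 1 nM-1 uM range). Barcodes were amplified and sequenced, and cell number was interpolated from 293T spike-in standard curves. The result is expressed as % of the median of DMSO wells. Two biological replicates.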

[1] = sgRNA knockout: sgATF3, 1000 nM
[2] = sgRNA knockout: sgATF3, 10000 nM
[3] = sgRNA knockout: sgATF4, 1000 nM
[4] = sgRNA knockout: sgATF4, 10000 nM
[5] = sgRNA knockout: sgATF6, 1000 nM
[6] = sgRNA knockout: sgATF6, 10000 nM
[7] = sgRNA knockout: sgATG7, 1000 nM
[8] = sgRNA knockout: sgATG7, 10000 nM
[9] = sgRNA knockout: sgERN1, 1000 nM
[10] = sgRNA knockout: sgERN1, 10000 nM
[11] = sgRNA knockout: sgHSF2, 1000 nM
[12] = sgRNA knockout: sgHSF2, 10000 nM
[13] = sgRNA knockout: sgNFE2L2, 10 nM
[14] = sgRNA knockout: sgNFE2L2, 100 nM
[15] = sgRNA knockout: sgNFE2L2, 1000 nM
[16] = sgRNA knockout: sgNFE2L2, 10000 nM
[17] = sgRNA knockout: sgSLC35F2, 10 nM
[18] = sgRNA knockout: sgSLC35F2, 100 nM
[19] = sgRNA knockout: sgSLC35F2, 1000 nM
[20] = sgRNA knockout: sgSLC35F2, 10000 nM
[21] = sgRNA knockout: sgXBP1, 1000 nM
[22] = sgRNA knockout: sgXBP1, 10000 nM

| SMILES | relative cell number (sgRNA knockout: sgATF3, 10 nM) | relative cell number (sgRNA knockout: sgATF3, 100 nM) | relative cell number [1] | relative cell number [2] | relative cell number (sgRNA knockout: sgATF4, 10 nM) | relative cell number (sgRNA knockout: sgATF4, 100 nM) | relative cell number [3] | relative cell number [4] | relative cell number (sgRNA knockout: sgATF6, 10 nM) | relative cell number (sgRNA knockout: sgATF6, 100 nM) | relative cell number [5] | relative cell number [6] | relative cell number (sgRNA knockout: sgATG7, 10 nM) | relative cell number (sgRNA knockout: sgATG7, 100 nM) | relative cell number [7] | relative cell number [8] | relative cell number (sgRNA knockout: sgERN1, 10 nM) | relative cell number (sgRNA knockout: sgERN1, 100 nM) | relative cell number [9] | relative cell number [10] | relative cell number (sgRNA knockout: sgHSF2, 10 nM) | relative cell number (sgRNA knockout: sgHSF2, 100 nM) | relative cell number [11] | relative cell number [12] | relative cell number [13] | relative cell number [14] | relative cell number [15] | relative cell number [16] | relative cell number [17] | relative cell number [18] | relative cell number [19] | relative cell number [20] | relative cell number (sgRNA knockout: sgXBP1, 10 nM) | relative cell number (sgRNA knockout: sgXBP1, 100 nM) | relative cell number [21] | relative cell number [22] |
| --- | --- | --- | --- | --- | --- | --- | --- | --- | --- | --- | --- | --- | --- | --- | --- | --- | --- | --- | --- | --- | --- | --- | --- | --- | --- | --- | --- | --- | --- | --- | --- | --- | --- | --- | --- | --- |
| C[C@H]1CCC/C=C/[C@@H]2C[C@H](O)C[C@H]2[C@H](O)/C=C/C(=O)O1 [BrefeldinA] | 114 ± 3 | 18.2 ± 1.2 | 10.9 ± 10 | 3.69 ± 0.76 | 121 ± 21 | 20.8 ± 5.6 | 11.5 ± 7.4 | 6.17 ± 3.3 | 150 ± 86 | 17.3 ± 9.1 | 5.53 ± 4.3 | 2.95 ± 0.4 | 105 ± 24 | 16.3 ± 12 | 8.17 ± 4.2 | 5.43 ± 0.96 | 118 ± 35 | 24.9 ± 2.2 | 9.21 ± 5.2 | 6.8 ± 1.1 | 106 ± 25 | 19 ± 11 | 10.6 ± 5.7 | 6.63 ± 0.81 | 107 ± 32 | 15.2 ± 6.3 | 10.9 ± 4.6 | 5.31 ± 2 | 85.2 ± 13 | 16.3 ± 3.9 | 2.55 ± 0.31 | 10.3 ± 2.6 | 99.5 ± 22 | 17.15 ± 0.15 | 9 ± 3.8 | 3.93 ± 0.78 |
| O=C(CCc1ccc(O)cc1)c1c(O)cc(O)cc1O [Phloretin] | 115 ± 47 | 131 ± 41 | 121 ± 9.7 | 108 ± 24 | 112 ± 42 | 107 ± 29 | 138 ± 55 | 105 ± 22 | 98.3 ± 63 | 109 ± 3.1 | 85.8 ± 4.1 | 70.6 ± 28 | 81.4 ± 24 | 87.651 ± 0.039 | 120 ± 66 | 81.88 ± 0.62 | 112 ± 24 | 109.1 ± 0.82 | 93.9 ± 1.2 | 96.5 ± 13 | 104 ± 17 | 79.3 ± 14 | 102 ± 35 | 116 ± 8.9 | 108 ± 1.1 | 112 ± 22 | 95.6 ± 18 | 129 ± 16 | 99.6 ± 4.7 | 126 ± 50 | 70 ± 26 | 126 ± 45 | 110 ± 1.4 | 92.7 ± 21 | 86.5 ± 5.2 | 91 ± 7.7 |
| Nc1ccn([C@@H]2O[C@H](CO)[C@@H](O)C2(F)F)c(=O)n1 [Gemcitabine] | 64.9 ± 14 | 31.1 ± 6.6 | 28.9 ± 5.5 | 21.6 ± 3.6 | 56.3 ± 25 | 33.8 ± 5.7 | 28.3 ± 18 | 16.2 ± 11 | 38.8 ± 5.5 | 27.6 ± 6.7 | 21.2 ± 8.1 | 17.1 ± 2.8 | 47.3 ± 6.5 | 39.2 ± 12 | 25.5 ± 7.9 | 18.1 ± 5.7 | 42.73 ± 0.16 | 36 ± 9.5 | 36.4 ± 4.9 | 27.6 ± 0.82 | 45.8 ± 2.1 | 33.4 ± 4.4 | 24 ± 8.1 | 23.4 ± 5.5 | 49.55 ± 0.16 | 23.2 ± 0.63 | 26.4 ± 9.9 | 21.7 ± 2.2 | 47.7 ± 1.9 | 39.6 ± 14 | 20.5 ± 1.1 | 21.1 ± 7.1 | 40.8 ± 4 | 24.7 ± 4.2 | 26.3 ± 5.5 | 20.1 ± 4.1 |
